Drawing on ChEMBL document CHEMBL2311293, “Discovery of agonists of cannabinoid receptor 1 with restricted central nervous system penetration aimed for treatment of gastroesophageal reflux disease” (J Med Chem, 2013), this text covers logD for one compound.

The nature of the data set: Lipophilicity, log D of the compound. The settings on record: octanol/water.

By logD is commonly meant the decadic logarithm of the distribution of all forms, ionised or not, between an organic phase and buffer at a given pH. High values mean a more lipophilic compound, low ones a more hydrophilic compound. `CS(=O)(=O)Cc1ccc(C(=O)Nc2cccnc2C(=O)NCC2CCC2)c2ccccc12` had a logD of 5.2.
